# Results deposited as PubChem BioAssay AID743454 (Peter MacCallum Cancer Centre, 2014).
# Purpose: 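Knock-downs lowering viability or raising caspase 3/7 activity in vorinostat-treated resistant cells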 (primary screen)
# Cell system: human HCT116-VR colon cancer cells, selected for vorinostat resistance
# Reagents: siRNA pool against human genes, 40 nM siRNA pool
# Duration: vorinostat for 24 h, read-out about 72 h after transfection
# Treatment: vorinostat at 2.5 µM final
# Detection: 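Two measures, CellTiter-Fluor viability and luminescent caspase 3/7 activity, each as fold change against same-plate mock wells, mean of duplicates, then screen-wide robust z-score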
# Scale: viability robust z-score: higher = more viable cells than screen typical; caspase robust z-score: higher = more caspase 3/7 activity than screen typical
# Active means: 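Hits are knock-downs in viability class RV1/RV2 or caspase class CA1/CA2, excluding ones that killed cells in the no-drug cell-count arm; hits then retested with single siRNAs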
# The deposit covers about 18,000 reagents; shown is a part drawn at random. 450 of them (2.5%) were called active. 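Single biological run; no consistent viability z cut-off exists, so the class columns, not z-scores, define the calls.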 A number with no mark means an inactive call.
Gene,viability hit class,caspase hit class,viability robust z-score,caspase robust z-score
RERGL (RERG like),no change,no change,0.38,-0.22
FRMPD2 (FERM and PDZ domain containing 2),no change,no change,0.42,-0.66
CLDND1 (claudin domain containing 1),no change,no change,-1.73,-0.48
NDUFAF5 (NADH:ubiquinone oxidoreductase complex assembly factor 5),no change,no change,0.2,-0.85
OSGIN2 (oxidative stress induced growth inhibitor family member 2),no change,no change,0.39,0.26
NMRK2 (nicotinamide riboside kinase 2),no change,no change,0.15,-0.74
GNRH1 (gonadotropin releasing hormone 1),no change,no change,0.56,0.01
MITF (melanocyte inducing transcription factor),no change,no change,1.17,-0.42
VRK2 (VRK serine/threonine kinase 2),no change,no change,-0.68,-0.29
HSPA2 (heat shock protein family A (Hsp70) member 2),no change,no change,-0.36,1.54
RGL1 (ral guanine nucleotide dissociation stimulator like 1),no change,no change,0.2,-0.66
SPCS2 (signal peptidase complex subunit 2),no change,no change,0.74,0.7
COP1 (COP1 E3 ubiquitin ligase),no change,no change,-0.34,-0.48
SCN8A (sodium voltage-gated channel alpha subunit 8),no change,no change,0.03,2.4
SERAC1 (serine active site containing 1),no change,no change,-0.37,-0.6
GTF3C1 (general transcription factor IIIC subunit 1),no change,no change,0.38,0.38
FRRS1L (ferric chelate reductase 1 like),no change,no change,-0.36,1.23
FBXO22 (F-box protein 22),no change,no change,-0.09,-0.16
BRCA1 (BRCA1 DNA repair associated),no change,no change,0,-0.24
MIA3 (MIA SH3 domain ER export factor 3),no change,no change,0.61,-0.32
PEX39 (peroxisomal biogenesis factor 39),no change,no change,1.86,-0.65
ZNF577 (zinc finger protein 577),no change,no change,-0.84,-0.9
NVL (nuclear VCP like),no change,no change,-1.4,-1.28
SHISA5 (shisa family member 5),no change,no change,-0.4,-0.2
NDUFA12 (NADH:ubiquinone oxidoreductase subunit A12),no change,no change,0.5,0.46

Reformatted: entries from further up
GTF3C1 (general transcription factor IIIC subunit 1) — viability hit class: no change; caspase hit class: no change; viability robust z-score: 0.38; caspase robust z-score: 0.38
FRRS1L (ferric chelate reductase 1 like) — viability hit class: no change; caspase hit class: no change; viability robust z-score: -0.36; caspase robust z-score: 1.23
FBXO22 (F-box protein 22) — viability hit class: no change; caspase hit class: no change; viability robust z-score: -0.09; caspase robust z-score: -0.16
BRCA1 (BRCA1 DNA repair associated) — viability hit class: no change; caspase hit class: no change; viability robust z-score: 0; caspase robust z-score: -0.24
MIA3 (MIA SH3 domain ER export factor 3) — viability hit class: no change; caspase hit class: no change; viability robust z-score: 0.61; caspase robust z-score: -0.32
PEX39 (peroxisomal biogenesis factor 39) — viability hit class: no change; caspase hit class: no change; viability robust z-score: 1.86; caspase robust z-score: -0.65
ZNF577 (zinc finger protein 577) — viability hit class: no change; caspase hit class: no change; viability robust z-score: -0.84; caspase robust z-score: -0.9

Additional reagents:
Gene,viability hit class,caspase hit class,viability robust z-score,caspase robust z-score
MYL3 (myosin light chain 3),no change,no change,-1.09,-0.17
MNMIP1 (manchette microtubule inner protein 1),no change,no change,0.66,1.52
SIK2 (salt inducible kinase 2),no change,no change,-0.92,0.98
"HLA-B (major histocompatibility complex, class I, B)",no change,no change,-0.34,5.04
TMEM171 (transmembrane protein 171),no change,no change,-0.8,-0.89
"PSMD3 (proteasome 26S subunit, non-ATPase 3)",no change,no change,-4.5,2.55
APOA5 (apolipoprotein A5),no change,no change,0.7,0.11
PFDN5 (prefoldin subunit 5),no change,no change,0.48,0.24
PHF20 (PHD finger protein 20),no change,no change,-0.37,-0.06
"RAB4B (RAB4B, member RAS oncogene family)",no change,no change,-1.56,2.65
HAL (histidine ammonia-lyase),no change,no change,-2.43,0.83
LMBRD2 (LMBR1 domain containing 2),no change,no change,-0.21,-0.11
ABHD13 (abhydrolase domain containing 13),no change,no change,-0.3,0.69
HSPB9 (heat shock protein family B (small) member 9),no change,no change,1.92,2.7
WDR76 (WD repeat domain 76),no change,no change,0.01,-0.95
"AGL (amylo-alpha-1,6-glucosidase and 4-alpha-glucanotransferase)",no change,no change,-0.34,-0.53
TRMT1L (tRNA methyltransferase 1L),no change,no change,0.75,1.23
MRPL51 (mitochondrial ribosomal protein L51),no change,no change,0.56,-0.14
TMEM200B (transmembrane protein 200B),no change,no change,-0.4,-0.94
RNASE13 (ribonuclease A family member 13 (inactive)),no change,no change,-0.66,0.08
PSMB2 (proteasome 20S subunit beta 2),no change,no change,-3.67,2.91
CNNM1,no change,no change,-0.39,3.7
LEMD3 (LEM domain containing 3),no change,no change,0.01,-0.83
KLHL22 (kelch like family member 22),no change,no change,1.24,-0.38
FARSB (phenylalanyl-tRNA synthetase subunit beta),no change,no change,-0.59,-0.78
HSF1 (heat shock transcription factor 1),no change,no change,0.01,1.07
THUMPD2 (THUMP domain 2 tRNA and snRNA guanosine methyltransferase),no change,no change,0.52,3.01
CBLL1 (Cbl proto-oncogene like 1),no change,no change,0.56,-0.39
POC1A (POC1 centriolar protein A),no change,no change,0.73,-0.75
AJAP1 (adherens junctions associated protein 1),no change,no change,-0.09,-0.76
PHF6 (PHD finger protein 6),no change,no change,0.9,0.17
MYLK4 (myosin light chain kinase family member 4),no change,no change,-0.87,0.78
